No constants are given. Whether binding was seen depends on the method and setting. In cells and extracts the contact can be indirect. Binding calls can cover weak binding; strength is not graded here. For some assays here: Sequences can lack the tags named with a protein.
T1: full length TRIM14 ORF tagged at the C-terminus with 3xFLAG (human) (UniProt Q14142)
T1 sequence: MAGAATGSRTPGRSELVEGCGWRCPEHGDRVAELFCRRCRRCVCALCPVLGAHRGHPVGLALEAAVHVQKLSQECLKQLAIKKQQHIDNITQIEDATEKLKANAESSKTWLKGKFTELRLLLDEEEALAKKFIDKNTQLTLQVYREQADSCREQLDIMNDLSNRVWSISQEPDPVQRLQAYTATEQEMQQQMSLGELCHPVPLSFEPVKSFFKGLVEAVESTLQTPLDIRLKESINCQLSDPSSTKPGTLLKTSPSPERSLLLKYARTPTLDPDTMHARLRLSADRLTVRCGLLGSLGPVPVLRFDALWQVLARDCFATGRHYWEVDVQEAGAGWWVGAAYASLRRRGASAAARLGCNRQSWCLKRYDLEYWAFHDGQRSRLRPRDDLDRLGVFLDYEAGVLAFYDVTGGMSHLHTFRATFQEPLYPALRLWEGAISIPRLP

Chains of the proteins cited; added tags and fusions are not shown. Lines headed by an entry give the natural chain unless they say otherwise; changes in a name come on top.
UniProt O95831: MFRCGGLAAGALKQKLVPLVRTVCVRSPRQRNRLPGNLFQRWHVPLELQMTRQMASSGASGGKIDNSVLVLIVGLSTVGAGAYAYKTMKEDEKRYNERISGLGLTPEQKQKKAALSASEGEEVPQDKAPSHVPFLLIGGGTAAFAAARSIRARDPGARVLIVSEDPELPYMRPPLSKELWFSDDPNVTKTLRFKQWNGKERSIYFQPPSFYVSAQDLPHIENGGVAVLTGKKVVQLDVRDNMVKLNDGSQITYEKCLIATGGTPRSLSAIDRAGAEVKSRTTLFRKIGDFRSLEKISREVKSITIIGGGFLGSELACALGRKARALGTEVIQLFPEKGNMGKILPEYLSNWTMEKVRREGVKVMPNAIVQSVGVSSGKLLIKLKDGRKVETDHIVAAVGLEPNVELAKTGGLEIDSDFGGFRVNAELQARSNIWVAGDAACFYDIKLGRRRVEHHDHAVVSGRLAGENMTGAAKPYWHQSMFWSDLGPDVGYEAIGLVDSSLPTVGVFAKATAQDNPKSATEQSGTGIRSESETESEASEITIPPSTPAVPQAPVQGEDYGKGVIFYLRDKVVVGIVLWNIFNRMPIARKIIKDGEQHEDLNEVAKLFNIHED

B1: endogenous TRIM14 (protein, UniProt Q14142 1-442)
chain: T1 sequence

What was measured:
[1] = biological target: T1, full length TRIM14 ORF tagged at the C-terminus with 3xFLAG (human); assay: co-IP; HEK293T whole-cell extracts, FLAG-TRIM14 immunoprecipitated with anti-FLAG antibody, endogenous partners detected by blot; empty FLAG vector as control
[2] = biological target: Apoptosis-inducing factor 1, mitochondrial (human (endogenous in HEK293T)) (UniProt O95831); assay: co-IP; HEK293T cells, endogenous proteins; immunoprecipitation with anti-AIF antibody, blot for TRIM14

Molecule	binding [1]	binding [2]
Apoptosis-inducing factor 1, mitochondrial (from UniProt O95831)	binds	–
B1	–	binds

— article PMC5216374
